Reference: article doi:10.1101/2021.07.09.451853
Results are given in words; binding and its absence hold for the method and conditions named. In cells and extracts the contact can be indirect. Some results given as binding are weak or reduced against the parent protein; the word gives no strength. Tags and fused reporters may be left off the sequences shown.

Target: T1, 14-3-3 OMEGA:YFP (35S:OMEGA:YFP) (A. thaliana) (UniProt Q01525)
T1 sequence: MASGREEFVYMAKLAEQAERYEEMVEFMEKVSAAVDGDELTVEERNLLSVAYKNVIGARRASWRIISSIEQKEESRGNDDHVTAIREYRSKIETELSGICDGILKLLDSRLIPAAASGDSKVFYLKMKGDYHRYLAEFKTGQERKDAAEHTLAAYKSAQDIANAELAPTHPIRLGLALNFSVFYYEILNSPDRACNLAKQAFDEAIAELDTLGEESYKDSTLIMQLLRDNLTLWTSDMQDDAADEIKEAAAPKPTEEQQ
Assay: co-IP

binding: binds
B1: 14-3-3 KAPPA:HA (35S:KAPPA:HA) (protein, UniProt P48348 1-248)
chain: MATTLSRDQYVYMAKLAEQAERYEEMVQFMEQLVSGATPAGELTVEERNLLSVAYKNVIGSLRAAWRIVSSIEQKEESRKNEEHVSLVKDYRSKVETELSSICSGILRLLDSHLIPSATASESKVFYLKMKGDYHRYLAEFKSGDERKTAAEDTMIAYKAAQDVAVADLAPTHPIRLGLALNFSVFYYEILNSSEKACSMAKQAFEEAIAELDTLGEESYKDSTLIMQLLRDNLTLWTSDMQEQMDEA
